PubChem BioAssay AID1259308 | NCATS – 2017
Assay: 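Knock-downs that increase output of a recombinant reporter protein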 (primary screen). Cells: human HEK293 embryonic kidney cells stably expressing firefly luciferase (HEK-CMV-Luc2-Hygro). Knock-down reagent: single siRNA against human genes, 0.8 pmol siRNA per well. Time to read-out: 72 h. Detection: 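Reporter luminescence and viable-cell signal on separate replicate plates, given as percent of non-targeting control and median/MAD z-scores, plus per-cell luciferase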. Direction: total luciferase, z-score and total luciferase, % of control: higher = more reporter protein produced. Hit rule: 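Active when the median/MAD z-score for overall luciferase is greater than 3; a gene was taken forward for validation with new siRNAs if at least two of its three siRNAs passed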. Calls: active = raised luciferase; inactive = no rise.
Here is a random part of about 59,000 reagents tested. About 1,510 of all reagents (2.6%) were called active. 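Calls use total luciferase alone and ignore viability, so some active siRNAs may act by altering cell number.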 Entries without a mark were called inactive. The numbers tell different reagents against one gene apart. Further read-outs or replicates are left out here.

target gene	reagent	total luciferase, z-score	total luciferase, % of control
LTAP1	1	0.697	95.8
LTAP1	2	-0.203	77.8
LTAP1	3	2.18	125
SLC29A3	1	0.512	92.1
SLC29A3	2	1.89	119
SLC29A3	3	0.862	99
OR2K2	1	-0.454	72.8
OR2K2	2	0.71	96
OR2K2	3	0.16	85.1
ZNF250	1	-0.924	63.5
ZNF250	2	-2.19	38.3
ZNF250	3	-0.183	78.2
ADORA3	1	0.908	99.9
ADORA3	2	3.88 (active)	159
ADORA3	3	-1.28	56.4
CCDC196	1	-0.485	72.2
CCDC196	2	-0.692	68.1
CCDC196	3	-0.109	79.7
TBC1D20	1	-0.79	66.2
TBC1D20	2	0.86	99
TBC1D20	3	-0.918	63.6
NDST2	1	-1.07	60.7
NDST2	2	0.15	84.9
NDST2	3	2.13	124
TYW5	1	2.36	129
TYW5	2	0.386	89.6
TYW5	3	-0.705	67.9
FLJ45513	1	-0.906	63.9
FLJ45513	2	2.7	136
FLJ45513	3	-0.48	72.3
DBX1	1	0.691	95.6
DBX1	2	-0.256	76.8
DBX1	3	2.15	125
TGFB3	1	-0.369	74.5
TGFB3	2	2.52	132
TGFB3	3	-0.377	74.4
KDM5B	1	-0.711	67.8
KDM5B	2	-0.86	64.8
KDM5B	3	0.56	93
MARCHF10	1	0.48	91.4
MARCHF10	2	1.77	117
MARCHF10	3	0.118	84.2
WDR20	1	-0.894	64.1
WDR20	2	-1.11	59.7
WDR20	3	0.831	98.4
PPM1G	1	-0.0498	80.9
PPM1G	2	-0.498	72
PPM1G	3	0.893	99.6
KAZN	1	-1.62	49.7
KAZN	2	2.23	126
KAZN	3	-1.85	45.1
KAZN	4	-0.785	66.3
KAZN	5	1.19	105
KAZN	6	-1.57	50.7
FUT2	1	1.71	116
FUT2	2	0.897	99.7
FUT2	3	-0.55	71

In a second layout: entries from further up.
target gene,reagent,"total luciferase, z-score","total luciferase, % of control"
LTAP1,1,0.697,95.8
LTAP1,2,-0.203,77.8
LTAP1,3,2.18,125
